# Binding screen against folded nucleic acids

Oligonucleotides screened, 5′ to 3′:
PreQ1: PreQ1 riboswitch RNA pseudoknot, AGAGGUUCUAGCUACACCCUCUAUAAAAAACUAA. From B. subtilis. Hit rate about 0.7% of about 24,000 compounds.
TPP: TPP riboswitch RNA three-way junction, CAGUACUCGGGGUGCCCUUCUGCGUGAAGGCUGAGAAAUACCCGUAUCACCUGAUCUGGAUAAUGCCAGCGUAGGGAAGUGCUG. Hit rate about 0.7% of about 24,000 compounds.
SAM-II: SAM-II riboswitch RNA pseudoknot, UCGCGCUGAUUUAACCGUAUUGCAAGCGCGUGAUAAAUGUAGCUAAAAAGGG. Hit rate about 1% of about 21,000 compounds.

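Compounds were printed on reactive glass slides in duplicate spots, a dye-labelled oligonucleotide was laid over them, and the fluorescence left after washing was read. The data file lists only calls. An earlier report of the laboratory on the PreQ1, TPP and SAM-II riboswitches (doi:10.1038/s41467-019-09493-3) used 1 µM RNA for 2 h and required a mean Z-score above 3 (spot signal-to-noise against the whole library), a score well above that on a control array, and duplicate spots agreeing (coefficient of variation under 100); it then also set aside compounds that hit other targets, which this list keeps. The cut-offs behind this list may differ. These are primary screening calls, not affinities; a compound without a hit may have attached poorly or may still bind in solution.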
Key: Y = hit, N = tested without a hit.
The compounds are a random part of those screened.
A target missing from an entry has no call listed here.
A dash means that no call is listed here.

Compound,PreQ1,TPP,SAM-II
COCCN[C@H]1CS(=O)(=O)C[C@@H]1S(=O)(=O)c1ccc(C)cc1,N,N,-
CC(C)c1ccc(-n2nnc(-c3nc(-c4ccccc4F)no3)c2N)cc1,N,N,-
Cc1ccc(-c2noc(-c3cccnc3NC3CCCCC3)n2)cc1,N,N,-
COCCCOc1cc(C[C@@H](C[C@H](N)[C@@H](O)C[C@H](C(=O)NCC(C)(C)C(N)=O)C(C)C)C(C)C)ccc1OC,N,N,N
CC1(C)CC1(C(=O)NCCNc1cccnc1)c1ccc(F)cc1 (stereo not drawn),N,N,N
Nc1c(-c2nc(-c3ccccc3)cs2)c2ccccn2c1C(=O)c1ccc2c(c1)OCO2,N,N,-
COc1cc(CNCCc2ccc(F)cc2)ccc1OCc1ccc2c(c1)n(C)c(=O)n2C,N,N,-
Cc1nnnn1-c1ccc(CC(=O)N2CCOCC(O)C2)cc1 (stereo not drawn),N,N,N
OCC1(Cc2ccc(Cl)cc2)CCN(c2ncccc2F)CC1,N,N,N
NC1CCCCN(c2nc(-c3ccccc3)ccc2C(=O)O)C1 (stereo not drawn),N,N,N
CCC(C)Nc1cc(C)nc2c(C)c(-c3ccccc3)nn12 (stereo not drawn),N,N,-
c1cn(Cc2nnc(C3CCN(C[C@H]4[C@@H]5CNC[C@@H]54)CC3)n2C2CC2)cn1,N,N,N
NS(=O)(=O)c1ccc(CNCCC(=O)Nc2nccs2)cc1,N,N,N
COc1ccc(-c2c(C#N)c(N)nc3c2CCCCC3)c(OC)c1OC,N,N,N
NC(=O)CN1CC2(CCC1=O)CCN(C(=O)C1CNCCO1)CC2 (stereo not drawn),N,N,N
Oc1ncccc1-n1ccnc1-c1cc2n(n1)CCNC2,N,N,N
COc1ccc(C)cc1Nc1nc2ccc(C)cc2n2cnnc12,N,N,N
Cc1cc(F)ccc1NC(=O)CNC(C)Cn1ccnc1 (stereo not drawn),N,N,N
Clc1ccc(CCC(Cn2ccnc2)Sc2c(Cl)cccc2Cl)cc1 (stereo not drawn),N,N,N
CCOC(=O)c1cnc2ccc(C(=O)OC)cc2c1Nc1ccc(Cl)cc1C,N,N,N
CNc1cc(C(=O)N2CCC(C(O)Cc3ccccc3)CC2)ccn1 (stereo not drawn),N,N,N
OCc1ccc(-c2nccn2Cc2nc3c(s2)CCCC3)o1,N,N,N
O=C1c2ccccc2C(Nc2ccccc2)N1Cc1ccc2c(c1)OCO2 (stereo not drawn),N,N,N
CCCCn1cnc2cc(NCc3ccc(Cl)cc3)ccc21,N,N,N
CCOC(=O)c1cnc2cc(F)c(F)cc2c1Nc1ccccc1O,N,N,N
CN(C(=O)c1ccc(-c2ccccc2)cc1)C1CCCCC1O (stereo not drawn),N,N,N
Cc1cc(C)c(S(=O)(=O)N2CCN(CCO)CC2)c(C)c1,N,N,N
CC(C)(C)n1cnc2cc(NCc3ccccc3Cl)ccc21,N,N,N
COCc1cc(C)nc2sc(C(=O)Nc3ccccc3F)c(N)c12,N,N,N
Oc1cccc(Nc2nc(-c3cccnc3)cs2)c1,N,N,N
Cn1ccnc1CN1C(=O)NC2(CCNCC2)C1=O,N,N,N
Cc1cc(Nc2ccccc2C)n2nc(-c3cccnc3)nc2n1,N,N,-
NCCO[C@H]1C[C@@H](O)C12CCN(C(=O)c1ccoc1)CC2,N,N,N
COc1cccc([C@H]2CN(C(=O)c3n[nH]c4c3CCC4)C[C@@H]2N)c1,N,N,N
O=C1CNc2ccc(-c3nc(C4CCOCC4)n[nH]3)cc2N1,N,N,N
Nc1c(S(=O)(=O)c2ccc(Br)cc2)nnn1-c1ccccc1F,N,N,N
COCCC1(CO)CCCN(C(=O)CCC(F)(F)F)C1 (stereo not drawn),N,N,N
CCN(CC)c1ccc2c(c1)OC(N)=C(C#N)C2c1cc(OC)c2c(c1)OCO2 (stereo not drawn),N,N,N
c1cc(CNCc2ccc3c(c2)OCO3)cs1,N,N,N
CCOc1ccccc1NN=C1C(=O)N(c2nc(-c3ccccc3)cs2)N=C1C,N,N,N
Nc1ccnc(N2C[C@@H]3[C@H](C2)[C@H]2CC[C@@H]3O2)n1,N,N,N
Cc1ccc(-c2nc3c(C)cccn3c2Nc2ccccc2)o1,N,N,N
COc1ccccc1NC(=O)c1sc2nc(N3CCCC3)c3c(c2c1N)CCCC3,N,N,-
Cc1ccc(O)c(Nc2nc(N)c3ccccc3n2)c1,N,N,N
COc1cccc(CN2CCN(C(=O)C(O)c3ccccc3)CC2=O)c1 (stereo not drawn),N,N,N
Cc1cc2nc(CS)[nH]c2cc1C,N,N,N
COc1cccc(Nc2c(-c3ccc(N(C)C)cc3)nc3cnccn23)c1,N,N,-
COC(=O)c1nnn(CC(=O)Nc2ccccc2)c1N,N,N,N
Cc1ccnc(NCCCNc2cccnc2)n1,N,N,N
OCC(CNc1nccc(-c2cccnc2)n1)Cc1ccsc1 (stereo not drawn),N,N,N
COCc1c(C(=O)N2CCNCC2C(=O)NC2CC2)noc1C (stereo not drawn),N,N,N
Clc1ccccc1CNCCc1c[nH]c2ccccc12,N,N,N
NC(=O)C1CCN(CC(=O)NC(CO)c2cc(Cl)cc(Cl)c2)CC1 (stereo not drawn),N,N,N
CCC1(CO)CCCN(CCC(=O)N2CCc3ccccc3C2)C1 (stereo not drawn),N,N,N
Cc1cc(NCCN2CCOCC2)n2nc(C(F)(F)F)c(-c3ccccc3)c2n1,N,N,-
Clc1ccc(NCc2cccs2)cc1,N,N,N
C#CCN[C@@H]1CCc2ccccc21.CS(=O)(=O)O,N,N,N
O=C(Nc1ccc(Oc2ccnc3[nH]ccc23)c(F)c1)c1cccn(-c2ccc(F)cc2)c1=O,N,N,N
COc1ccc(-c2cnn3c(N)c(-c4ccccc4)cnc23)cc1OC,N,N,N
COc1ccc(CNC(=O)c2c(N)nc3sc4c(c3c2C(F)(F)F)CCC4)cc1,N,N,N
CC1(C)CC(=O)C2=C(C1)Nc1ccccc1NC2c1cccs1 (stereo not drawn),N,N,N
CCC(O)c1nc2ccccc2n1CCOc1cccc(C)c1 (stereo not drawn),N,N,-
CC(C)(C)C(O)CSc1nc2ccccc2[nH]1 (stereo not drawn),N,N,N
C=CCOC(=O)C1=C(C)OC(N)=C(C(=O)OCC)C12C(=O)N(CC=C)c1ccccc12 (stereo not drawn),N,N,N
C[C@H](NCc1ccc(OCC(N)=O)cc1)C(N)=O,N,N,N
Nc1nnc(SCC(=O)Nc2ccccc2Oc2ccccc2)s1,N,N,N

8 of the entries, repeated:

- CC(C)c1ccc(-n2nnc(-c3nc(-c4ccccc4F)no3)c2N)cc1 : PreQ1: N; TPP: N
- CCN(CC)c1ccc2c(c1)OC(N)=C(C#N)C2c1cc(OC)c2c(c1)OCO2 (stereo not drawn) : PreQ1: N; TPP: N; SAM-II: N
- CN(C(=O)c1ccc(-c2ccccc2)cc1)C1CCCCC1O (stereo not drawn) : PreQ1: N; TPP: N; SAM-II: N
- COc1ccccc1NC(=O)c1sc2nc(N3CCCC3)c3c(c2c1N)CCCC3 : PreQ1: N; TPP: N
- Clc1ccccc1CNCCc1c[nH]c2ccccc12 : PreQ1: N; TPP: N; SAM-II: N
- Cc1nnnn1-c1ccc(CC(=O)N2CCOCC(O)C2)cc1 (stereo not drawn) : PreQ1: N; TPP: N; SAM-II: N
- COCCN[C@H]1CS(=O)(=O)C[C@@H]1S(=O)(=O)c1ccc(C)cc1 : PreQ1: N; TPP: N
- Cc1ccc(-c2noc(-c3cccnc3NC3CCCCC3)n2)cc1 : PreQ1: N; TPP: N

From ROBIN, a set of small-molecule microarray screens (doi:10.1002/anie.202211358).